From patent US20120094989A1, “5-HT RECEPTOR MODULATING COMPOUNDS” (priority 2009, published 2012)
At least one structure is not confirmed: it was looked up by name or label, or the drawing left a doubt.

Amino acid sequences for entries named in this document (tags omitted). A change or cut given only in a name is not applied to a line headed by its entry.
UniProt Q13639: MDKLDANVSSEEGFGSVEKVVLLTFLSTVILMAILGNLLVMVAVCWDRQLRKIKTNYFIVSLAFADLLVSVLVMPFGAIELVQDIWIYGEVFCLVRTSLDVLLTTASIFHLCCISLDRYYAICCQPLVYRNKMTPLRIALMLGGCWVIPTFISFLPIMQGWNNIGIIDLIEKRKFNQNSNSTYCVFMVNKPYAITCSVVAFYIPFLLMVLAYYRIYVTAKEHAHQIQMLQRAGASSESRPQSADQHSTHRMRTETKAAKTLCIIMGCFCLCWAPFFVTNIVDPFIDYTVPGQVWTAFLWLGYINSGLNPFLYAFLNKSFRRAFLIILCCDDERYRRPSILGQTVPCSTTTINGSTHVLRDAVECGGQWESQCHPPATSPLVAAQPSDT

Target: human 5-HT4(b) receptor (Homo sapiens, UniProt Q13639)
Test: Adenylyl cyclase assay (antagonist pKb, agonist/antagonist properties)
Format: biochemical
Details: membranes of HEK293 cells stably expressing human 5-HT4(b) receptor
Procedure: The development of HEK293 cell lines stably expressing human 5-HT4(b) receptors was described and published previously (Bach et al. 2001). Briefly, HEK293 cells (ATCC) were grown in Dulbecco's modified Eagle's medium with 10% foetal calf serum and penicillin (100 U/ml) and streptomycin (100 μg/ml). Cells were transfected with plasmid DNA (pcDNA3.1(−) containing human 5-HT4(b) receptor cDNA) using SuperFect Transfection Reagent (QIAGEN) according to the manufacturers protocol. […]
Adenylyl cyclase activity was measured in membranes of HEK293 cells stably expressing the human 5-HT4(b) receptor (refs.) by determining conversion of [α-^32P]ATP to [^32P]cAMP in membranes prepared in STE by homogenization of cells grown and washed as described above in a Dounce glass-glass homogenizer by 10 strokes with the tight-fitting pestle. […] Adenylyl cyclase activities were measured in 10-μl aliquots in a final volume of 50 μl in the presence of 0.1 mM [α-^32P]ATP (1-2×10^6 cpm/assay), 4 mM MgCl2, 20 μM GTP, 1 mM EDTA, 1 mM [^3H]cAMP (ca. 10,000 cpm/assay), […] 3-isobutyl-1-methyl xanthine (IBMX; Sigma), a nucleoside triphosphate regenerating system consisting of 20 mM creatine phosphate (Sigma), 0.2 mg/ml creatine phosphokinase (Sigma) and 40 U/ml myokinase (Sigma) and additives described in the text and figures. […]

In the case of CC(C)(C(=O)O)c1ccc(CN2CCC(COC(=O)c3c4n(c5ccccc35)CCCO4)CC2)cc1 [Compound 29], the Agonist/Antagonist properties is reported as “Antagonist”.
